Experimental data from patent US11286268B1, “EIF4E-inhibiting compounds and methods” (EFFECTOR THERAPEUTICS, INC., priority 2019, dated 2022).
Structures were worked out from names or drawings and are uncertain.

By UniProt entry, the sequences of proteins in these tests, tags left out.
UniProt P06730, whole entry: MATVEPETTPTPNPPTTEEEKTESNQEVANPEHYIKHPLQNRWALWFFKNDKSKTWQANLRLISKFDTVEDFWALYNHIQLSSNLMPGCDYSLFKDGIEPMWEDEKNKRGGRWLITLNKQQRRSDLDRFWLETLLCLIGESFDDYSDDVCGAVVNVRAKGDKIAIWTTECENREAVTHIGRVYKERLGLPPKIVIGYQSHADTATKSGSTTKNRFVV

Target: recombinant eIF4E (Homo sapiens (Human), UniProt P06730)
Experiment: Fluorescence polarization competition assay for eIF4E binding potency
Conditions: read-out: elF4E FP, 75 nM recombinant eIF4E, 20 nM EDA-m7GDP-ATTO-550, IC50 class
Procedure: Compounds were screened for eIF4E binding potency using a fluorescence polarization competition assay. All binding reactions were performed in fluorescence polarization buffer (FPB) containing 20 mM Tris pH 7.5, 100 mM NaCl, 1 mM DTT, and 0.02% Tween-20. Final binding reactions contained 75 nM recombinant eIF4E (Beryllium, custom order), 20 nM EDA-m^7GDP-ATTO-550 (Jena Bioscience, NU-827-550) and varying concentrations of the inhibitory compound of interest. Final DMSO concentration in each reaction was 1%.
eIF4E protein was pre-incubated with EDA-m^7GDP-ATTO-550 in FPB at 2× concentrations for 5 minutes prior to the addition of compounds. Compounds (100×) were prepared using 3-fold serial dilutions in 100% DMSO, and subsequently diluted 1:50 in FPB to produce 2× stocks. 50 μl of 2× eIF4E/EDA-m^7GDP-ATTO-550 were transferred to the wells of a 96-well half-area black flat bottom polystyrene plate. 50 μl of 2× test compound were added, and binding reactions were allowed to equilibrate for 30 minutes at room temperature while protected from light. The fluorescent polarization signal was detected using a Victor 2 multi-label counter (Perkin Elmer) and the concentration necessary to achieve inhibition of eIF4E/EDA-m^7GDP-ATTO-550 binding by 50% (IC50) was calculated using data from an 8-point compound dilution series. […]

IC50: 50 to 1000 nM
SMILES: Cc1ncc(F)cc1-c1c(C(F)(F)F)cc2nc(C)n(CCOc3ccc(Cl)cc3-c3ccnc4ccsc34)c(=O)c2c1C#N [compound 706]
